Results are given in words; binding and its absence hold for the method and conditions named. Binding seen in cells or lysates may run through a third protein. Some binding calls cover weakened binding; strength is not graded here.
Molecular target: Ragulator complex protein p18/LAMTOR1 (human (endogenous in GBC-SD and SGC-996)) (UniProt Q6IAA8)
Test: co-IP; endogenous proteins in RIPA lysates of GBC-SD and SGC-996 cells; immunoprecipitation with the indicated antibodies, protein G agarose, 4°C overnight, western blot

By UniProt entry, the sequences of proteins in these tests, tags left out.
UniProt Q6IAA8: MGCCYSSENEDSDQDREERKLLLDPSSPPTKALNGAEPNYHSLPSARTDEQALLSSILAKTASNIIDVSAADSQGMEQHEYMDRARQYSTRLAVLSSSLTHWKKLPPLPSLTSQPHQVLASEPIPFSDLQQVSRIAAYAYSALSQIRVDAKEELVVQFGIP

binding: binds
B1: RING finger protein 152 (protein, UniProt Q8N8N0 1-203)
chain: METLSQDSLLECQICFNYYSPRRRPKLLDCKHTCCSVCLQQMRTSQKDVRCPWCRGVTKLPPGFSVSQLPDDPEVLAVIAIPHTSEHTPVFIKLPSNGCYMLPLPISKERALLPGDMGCRLLPGSQQKSVTVVTIPAEQQPLQGGAPQEAVEEEQDRRGVVKSSTWSGVCTVILVACVLVFLLGIVLHNMSCISKRFTVISCG
